Reference: article PMC7819943, “Rice protein-binding microarrays: a tool to detect cis-acting elements near promoter regions in rice”
Some of the results follow.

target: T1, OsSMF1 (Oryza sativa, UniProt Q6ZLB0 1-436); assay: protein-binding microarray (RPBM); PBS, 2% BSA, 51.3 ng/ul salmon testes DNA, 50 uM zinc acetate, 200 nM TF, 25 C, 1 h; high values mean tight binding; details: protein: recombinant; tags: N-terminal polyhistidine and DsRed monomer fusion (pET32a); chain copies: 2; label: CyDye5-dUTP incorporated in the synthesized complementary strand; 3' TTTTT single-stranded linker to array surface; dsDNA, one strand shown
T1 sequence: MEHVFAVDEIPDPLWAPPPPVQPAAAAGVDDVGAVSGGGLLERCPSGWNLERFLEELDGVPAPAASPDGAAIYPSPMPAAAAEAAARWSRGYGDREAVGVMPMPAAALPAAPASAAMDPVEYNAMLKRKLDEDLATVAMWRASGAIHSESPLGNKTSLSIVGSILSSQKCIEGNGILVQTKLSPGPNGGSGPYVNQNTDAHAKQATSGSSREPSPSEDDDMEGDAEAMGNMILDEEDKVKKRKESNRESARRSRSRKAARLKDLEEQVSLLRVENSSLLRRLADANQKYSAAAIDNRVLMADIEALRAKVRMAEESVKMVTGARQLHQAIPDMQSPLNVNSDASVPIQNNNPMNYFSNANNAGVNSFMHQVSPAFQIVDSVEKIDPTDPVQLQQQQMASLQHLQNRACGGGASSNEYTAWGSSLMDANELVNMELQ
Procedure, shortened: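 Ni–NTA purification followed expression in E. coli BL21-CodonPlus of transcription factors fused N-terminally to a polyhistidine tag and DsRed. At 200 nM in PBS with 2% BSA, salmon testes DNA and 50 µM zinc acetate, the protein was incubated for 1 h at 25 °C with a custom Agilent array that had been primer-extended with Cy5-dUTP and blocked with 2% BSA. After washing, the array was read on an Axon 4000B scanner. The binding signal is per-feature fluorescence intensity in arbitrary units.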

Sequence	binding signal
GCAAGCATGAACTCTACATGCATGATGCAGCAAGAGAGCGCGGAGTCACCTAGTGCAG	3860 fluorescence intensity (a.u.)
TCTTCCTCTCCATATGGATATGACATCACACTCTTCCTGACGGAGTCACCTAGTGCAG	8280 fluorescence intensity (a.u.)
ATTCAAGAACTCGATCGAGGAGGGCCAAGAAAGGTGTGAGCGGAGTCACCTAGTGCAG	29600 fluorescence intensity (a.u.)
TCGCACCAAGAATTGTTCACCTACCTTCAAAGTTCCAACACGGAGTCACCTAGTGCAG	63300 fluorescence intensity (a.u.)
AGTTTAAAGATTGATTTAGATTTAGATTCCACGTAATCGCCGGAGTCACCTAGTGCAG	7680 fluorescence intensity (a.u.)
CCCACCTCCGCCACCGCCGCTGCCACCCCAGCACACCGCCCGGAGTCACCTAGTGCAG	3800 fluorescence intensity (a.u.)
CTGCACGAGGATGAGGCGGCCGAGGCGGGATTTGCCATCTCGGAGTCACCTAGTGCAG	3340 fluorescence intensity (a.u.)
AGCATGTGCATAAAACCTCTGTTGGGAGGATCCATCTTATCGGAGTCACCTAGTGCAG	35300 fluorescence intensity (a.u.)
CCATGCACTAAATTAAATGAGTAGGCATCGGCTCTGCTGACGGAGTCACCTAGTGCAG	4070 fluorescence intensity (a.u.)
TTCAATGCTTCCTCAACATATGCGTCAGCCTGGGCATATGCGGAGTCACCTAGTGCAG	6850 fluorescence intensity (a.u.)
AACTTTGCGGCCTCCTCTTGGACGATGGAGTCATGATGGGCGGAGTCACCTAGTGCAG	28100 fluorescence intensity (a.u.)
CCTTGAGAGCTGGAGCCTGGACCTGGAGGAGCGGTGCGTTCGGAGTCACCTAGTGCAG	29100 fluorescence intensity (a.u.)
GCGCATTCCGCCTACGTGGCCTCGCCTCCGCCTCCGGTTCCGGAGTCACCTAGTGCAG	15500 fluorescence intensity (a.u.)
TAGTCCAGCAAAACTAGCCCAAACTATCCTTCAACCCGTGCGGAGTCACCTAGTGCAG	3190 fluorescence intensity (a.u.)
GCTTGCTCGCCGGCGGTGTGGGAATGATGACTCCCAGCCCCGGAGTCACCTAGTGCAG	4050 fluorescence intensity (a.u.)
TTTCGCAATTATATTGATGCAGAAATCAGCAGCTCACAATCGGAGTCACCTAGTGCAG	20700 fluorescence intensity (a.u.)
GAAGATAACGTGTTAGATTGTCTGCACTGTTACGTCAGCACGGAGTCACCTAGTGCAG	7440 fluorescence intensity (a.u.)
TCATAGTACTTGAGTCCATGACATCACCCTAGTCAACTCACGGAGTCACCTAGTGCAG	3440 fluorescence intensity (a.u.)
CGTGCATATAACATCTGCGTCGGTAGGCGTACGTGGAGACCGGAGTCACCTAGTGCAG	5050 fluorescence intensity (a.u.)
CCAGTAGAACATATATAGGGCCTACTGACCTTACTACTCCCGGAGTCACCTAGTGCAG	37100 fluorescence intensity (a.u.)
GATCAATTTGAGAACGAGAGAGAGTCGGCGTGGATCTCGACGGAGTCACCTAGTGCAG	3330 fluorescence intensity (a.u.)
CGTCAGGCCGAATTTGATGACGCGGACGATGATGGAAGCTCGGAGTCACCTAGTGCAG	12200 fluorescence intensity (a.u.)
TGTACTGAGAATGTGCATGCTGACCACTCATTTCTCATCCCGGAGTCACCTAGTGCAG	3330 fluorescence intensity (a.u.)

Given field by field: entries from further up.
CCATGCACTAAATTAAATGAGTAGGCATCGGCTCTGCTGACGGAGTCACCTAGTGCAG
  binding signal = 4070 fluorescence intensity (a.u.)
TTCAATGCTTCCTCAACATATGCGTCAGCCTGGGCATATGCGGAGTCACCTAGTGCAG
  binding signal = 6850 fluorescence intensity (a.u.)
